# PubChem BioAssay AID1508600 (Functional Genomics Laboratory (NCATS/FGL), 2020)
# About 3,700 (7%) of roughly 53,000 sequences were called active.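 How the source made its calls: active means gene knockdowns whose robust z-score for IL-1 alpha signal is at least 2 or at most -2, so actives lie on both sides; inactive means the rest.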 Some of the results follow.
# Assay: Components of the Cytosolic LPS Sensing Pathway: Gene Identification via Genome-wide siRNA Screen;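 further: robust z of the log signal after scaling to non-targeting control siRNA wells of the plate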
# Conditions: RAW264.7 macrophages, IL-1a HTRF, actives lie on both sides, screened at 100 nM (by protocol), cells primed 5 h with Pam3CSK4 first
# Method in brief: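 Knockdown: 100 nM siRNA, 48h, RAW264.7. Stimulation: Pam3CSK4 5 h, then LipidA via TransIT-TKO 24 h. Output: supernatant IL-1a HTRF, negative-control-normalized, log robust z-score; viability by CellTiter-Glo.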
row,Sequence,z-score
1,CCCUCAUGACAGCUUCGCATT against Wdr59,inactive: -1.01
2,CCAGGAAGAGAACUAUAAUTT against Tmem232,inactive: 0.721
3,CGAGAUGUGUGUUAAAGGATT against Utp23,inactive: 0.934
4,CCACUUUCGCUUUACCAAUTT against C330011M18Rik,inactive: 0.873
5,GGAGGUCCAGCUGUUCAUGTT against Kcnn4,inactive: 0.464
6,GGAAACAACUUUCUAUAACTT against Vmn1r195,inactive: -0.487
7,CCAGAUUGGUGAUGGUAGUTT against Gm4425,inactive: 1.19
8,GGUAAUUAUCUUGUUGUCATT against Sacm1l,inactive: -1.29
9,GCCCGUAUAGGUAUUGGUCTT against Mpg,active: 2.06
10,GCCGGCCAGAAUAUACAUUTT against Fndc10,inactive: 0.415
11,GGGACAAAUUGUCCAAAUGTT against Trpc4ap,inactive: 1.47
12,CCCAGUUAGUGAGACUUACTT against Gabrg3,inactive: -1.29
13,CCUAGCUAUGCUUUUGGCATT against Fkbp4,inactive: -1.43
14,GCUGAUGGUAUAAAAGUAGTT against Glud1,inactive: 1.07
15,GCACUUUAAUCUGGCUACCTT against Dnmt3b,inactive: -0.78
16,GGCCAUUUUUCUAGUGCUUTT against 1110038F14Rik,inactive: -0.391
17,GGCAGUACCACUUGUCUUATT against Dynlt1b,inactive: -0.084
18,GGCUGUGGACUCUGCAUGUTT against Wnk4,inactive: -1.01
19,GCCAGUUCUAGAAAUACCATT against 8430429K09Rik,inactive: 0.149
20,GGACUCCAAGUCGCUCGUATT against Armc9,inactive: 1.62
21,GGGAACAGCAUGAAGGAAGTT against Krt78,inactive: 0.688
22,GCAGGCUGCUCGAGAUAAATT against Dcp1a,inactive: 1.02
23,GCCAACAAGCAUUCCAUUGTT against Mrap,inactive: -0.991
24,GCUGAUUAACCCUCAGUAUTT against Gpc6,inactive: -0.531
25,GGUAGUGUCUGUAUUCUACTT against Olfr508,inactive: -1.12
26,GGGUGUCUUCUUGAACUGGTT against Lrit2,inactive: 0.914
27,GGGAUAAAUAUGAAGAAAGTT against Tacc2,inactive: -1.46

# Rewritten as tab-separated lines: part of the list above.
row	Sequence	z-score
1	CCCUCAUGACAGCUUCGCATT against Wdr59	inactive: -1.01
2	CCAGGAAGAGAACUAUAAUTT against Tmem232	inactive: 0.721
8	GGUAAUUAUCUUGUUGUCATT against Sacm1l	inactive: -1.29
19	GCCAGUUCUAGAAAUACCATT against 8430429K09Rik	inactive: 0.149
27	GGGAUAAAUAUGAAGAAAGTT against Tacc2	inactive: -1.46

# (next part)

row,Sequence,z-score
1,GCUGGAAAGUAGUUCAGUGTT against 4930583K01Rik,inactive: 1.47
2,GCUCGAAAUGACGUGUACATT against Gnl1,inactive: 0.858
3,GCACAUGCCAUACAACCAUTT against Fads1,inactive: 0.655
4,ACGACCUAUACCUCAGACCTT against Cebpd,inactive: -0.0955
5,GGAUUGUCAGAGAAAGAGATT against Syt3,inactive: -0.751
6,CCAUUGAGGCUACGAAAGCTT against Nefl,inactive: 0.587
7,GGAAACUUAAAGUGAAGGATT against Rbm28,inactive: 0.398
8,GCUUUUUCUCUUUGCACUGTT against Olfr826,inactive: 0.791
9,GGCCUGGUAAAGUUAGUAATT against Wdr20rt,inactive: 0.615
10,GGAAACUUAUCCCUACUCATT against Tal2,inactive: -0.386
11,GUCUAUCUUCAGCACAAACTT against Klrc3,active: 2.12
12,GGAUUUUUCAACUUAACGUTT against Get4,inactive: 1.6
13,GCAAAUCACCUACAAAAACTT against Zfp326,inactive: -1.02
14,GGAAAACAUUUAAACAGUGTT against Psmb11,inactive: 0.593
15,GGAAAUGAGAGCAUCCAUUTT against Cndp2,inactive: -1.37
16,GCACGGAAUUGUUGAGCUGTT against Maff,inactive: 0.0434
17,GUGCUCUAUGUCUUCACUGTT against Ltb4r2,inactive: -1
18,GGUGUCCGUAAAUGGAGUGTT against A430033K04Rik,inactive: 0.809
19,CGGAUAUUUACGAACUUACTT against Pitpnb,inactive: 1.24
20,GCACUUCGCGCAGUCUUCUTT against Zfp865,inactive: -1.49
21,GCACCAGUUCUACUUCACCTT against Fpr2,inactive: 0.45
22,GGAGAACUGAAGAAUCCAATT against Med11,inactive: 1.78
23,GGAGGAACUGAUCUUUCGATT against Gdnf,inactive: 1.15
24,GAAGAUGGUAGAGUCUACATT against Hcst,inactive: -0.849
25,GCUGCAGAGAAGAGCAAUGTT against Olfr872,inactive: -0.0504
26,CGUAUUGAUGUUGGGUAGCTT against Oas1c,inactive: 0.552
27,CAGGAUUCCUUGGACAUACTT against Olfr477,inactive: -0.559
